These are yes or no findings as the source states them, for the method shown. Some binding calls cover weakened binding; strength is not graded here.
T1: CXCL7 WT (neutrophil-activating peptide 2) (UniProt P02775)
T1 sequence: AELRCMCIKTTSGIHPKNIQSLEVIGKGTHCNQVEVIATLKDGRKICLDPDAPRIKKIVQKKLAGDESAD

Chains of the proteins cited; added tags and fusions are not shown. Residues count along the entry.
UniProt P25025, residues 1-43: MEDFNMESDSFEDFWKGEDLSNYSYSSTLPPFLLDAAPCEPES

B1: CXCL7 WT (neutrophil-activating peptide 2) (ligand, UniProt P02775 59-128)
chain: T1 sequence

Key:
[1] = target: T1, CXCL7 WT (neutrophil-activating peptide 2); test: NMR titration; 1H-15N HSQC; 320 uM CXCR2 N-domain titrated into 77 uM WT CXCL7, 50 mM phosphate pH 6.0, 35 C; final molar ratio CXCL7:N-domain 1:3.5; monomer and dimer peaks tracked together; both purified
[2] = target: T1, CXCL7 WT (neutrophil-activating peptide 2); test: condition: only CXCL7 bound to heparin dp26; N-domain peptide up to a 1:7 M ratio; NMR titration; 1H-15N HSQC; CXCR2 N-domain peptide titrated into the CXCL7:heparin dp26 complex up to a 1:7 molar ratio; both purified
[3] = target: T1, CXCL7 WT (neutrophil-activating peptide 2); test: 1H-15N HSQC NMR (monomer and dimer peaks); WT CXCL7 at 77-120 uM, 50 mM phosphate pH 6.0, 35 C; monomer to dimer; free and on titration with heparin dp26 (up to 1:4), which shifts the population to the dimer; both purified

Row | Molecule | binding [1] | binding [2] | binding [3]
1 | recombinant CXCR2 N-terminal domain (N-domain) (residues 1-43) peptide (from UniProt P25025 1-43) (domain or fragment) | binds | no binding | 
2 | B1 |  |  | binds weakly

Source: article PMC5630695
